Values quoted from earlier work, collected in article PMC8041708, “Characterization of MK6240, a tau PET tracer, in autopsy brain tissue from Alzheimer’s disease cases” (European Journal of Nuclear Medicine and Molecular Imaging, 2020).

Test system: AD tissue
Details: ref [8]; cited from earlier work

## CNc1ccc(-c2ccc3cc(OCC(O)CF)ccc3n2)cc1 (centres unmarked) [THK5117]
  Bmax1: 250 fmol/mg
  Bmax2: 1416 fmol/mg
